Measurements: PubChem BioAssay AID2685 (National Center for Advancing Translational Sciences (NCATS), 2010)
Values joined by “and” are separate entries in the source; they are usually repeats but may differ in a detail not shown here. Equal entries are not always repeated. Screen size: about 320,000 compounds; about 2,100 (0.66%) were called active. The shares of active, inactive and inconclusive entries below differ from those in the screen. Calls come from the whole dose curve; as a rule, active = well fitted inhibition curve with a large enough effect in the signal ratio, with a control signal flat (not every such curve was filed as active); inconclusive = small, poorly fitted or top-dose-only effect, or effect the other way, or a change in a side signal; inactive = flat fitted curve, though single readings scatter; the % refers to the signal ratio. A potency beside an inconclusive call is a rough fit, not a confirmed value.

test: qHTS Assay for Lipid Storage Modulators in Drosophila S3 Cells; settings: BODIPY lipid droplet fluorescence, 18-24 h, cells fed with added oleic acid; lipid storage change, negative = inhibition: at 46.1 µM (top of the series) unless noted
Method in brief: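 Drosophila S3 cells loaded with oleic acid (400 uM, as added) and compounds at several concentrations; lipid droplets imaged by 488-nm laser-scanning cytometry, 500–530 nm intensity and object ratio to cell channel. Percent activity normalized to 20 uM Triacsin C.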
% is set by controls: 0 for no effect and ±100 for the full control effect; potency is the fitted concentration of half-maximal effect.

| Structure (SMILES) | lipid storage change, negative = inhibition | Potency |
| --- | --- | --- |
| CCOC(=O)c1c(C)[nH]c(C)c1C(=O)Cn1nnc(-c2ccccc2C)n1 | inconclusive: 18.5% |  |
| CCCCC(O)(CCCC)C(=O)NN(C(=O)c1cccnc1Cl)c1ccccc1 | inconclusive: -15.6% |  |
| CN(CC(=O)N1CCN(c2ccccn2)CC1)S(=O)(=O)c1ccc(Cl)cc1 | inconclusive: 74.6% |  |
| Cc1cc(=O)oc2ccc(OC(=O)CC(C)C)cc12 | inconclusive: -5.32% [at 9.22 µM] |  |
| O=c1[nH][nH]c(-c2ccccc2)c1C=Nc1ccc(F)cc1F | inconclusive: 1.4% |  |
| O=S(=O)(CC(c1ccccc1)N1CCCCC1)c1ccc(Cl)cc1 (centres undefined) | inconclusive: 18.3% |  |
| CCNc1nc(Cl)nc(-c2cn(-c3ccccc3)c3ccccc23)n1 | inconclusive: -22.5% |  |
| Cc1cn([C@H]2C=C[C@@H](CO)O2)c(=O)[nH]c1=O | inconclusive: 15.2% and inconclusive: -3.76% |  |
| CC(=O)c1c(C)[nH]c(C(=O)OCC(=O)N(CC(C)C)C2CCS(=O)(=O)C2)c1C (centres undefined) | inconclusive |  |
| CSCCCNC(=S)N1CCc2ccccc2C1 | inconclusive: -1.8% |  |
| Cc1ccc(N(C)S(=O)(=O)c2cccc(C(=O)NC3CC(C)(C)NC(C)(C)C3)c2)cc1 | inconclusive |  |
| CCCOc1ccc(NC(=O)CC2C(=O)OCC3CCCCN32)cc1 (centres undefined) |  | inconclusive: 0.0046 µM [activator, full curve, poor fit] |
| C1CN(CCN2CCOCC2)CCN1 | inconclusive: -6.87% |  |
| Cc1ccc(C)c(SCC(=O)NC(=O)Nc2ccc3c(c2)OCCO3)c1 | inconclusive: 27.8% |  |
| CCn1cc(C(=O)OCC(=O)N(C)Cc2ccccc2)c(=O)c2ccc(C)nc21 | inconclusive: 22.7% |  |
| CCCc1cc(C(=O)Nc2cccc3ccccc23)n(C)n1 |  | inconclusive: 0.92 µM [falling, full curve, poor fit] |
| Cc1cc(=O)oc2c(C)c(OC(C)C(=O)NCCCN3CCCC3=O)ccc12 (centres undefined) |  | inconclusive: 6.51 µM [falling, single point] |
| COc1ccc(OC)c(Nc2nc(NCc3ccco3)nc(N)c2[N+](=O)[O-])c1 | inconclusive: 13.3% |  |
| Cc1ccccc1NC(=O)Cn1nc(C(=O)O)c2ccccc2c1=O | inconclusive: -52.3% |  |
| CCOc1ccc(C(=O)N2CCCC2C(=O)O)cc1 (centres undefined) | inconclusive: -0.0543% |  |

| Structure (SMILES) | lipid storage change, negative = inhibition | Potency |
| --- | --- | --- |
| COc1cc(/C=C2/CC/C(=C/c3ccc(O)c(OC)c3)C2=O)ccc1O |  | inconclusive: 18.4 µM [falling, single point] |
| O=C(NC(=S)NCc1ccccc1)c1cccc(Cl)c1 |  | inconclusive: 4.61 µM [activator, full curve] |
| CC(C)=CC(=O)OCC(=O)NC1CCCc2ccccc21 (centres undefined) | inconclusive: -1.76% |  |
| Cc1ccccc1-c1nc2ccccc2c(=O)n1/N=C/c1ccccc1[N+](=O)[O-] | inconclusive: 36.1% |  |
| CC(=O)N1c2ccc(S(=O)(=O)N3CCCC(C(=O)Nc4cccc(F)c4)C3)cc2CC1C (centres undefined) | inconclusive: 21.4% |  |
| COc1ccc(C(=O)Nc2cc(OC)c(Cl)cc2OC)cc1 | inconclusive: -49.1% |  |
| COc1ccc(C(=O)N/N=C/c2ccc(OC)c(COc3ccc(F)cc3F)c2)cc1 |  | inconclusive: 1.58 µM [falling, partial curve] |
| S=c1[nH]nc(-c2ccc(Br)cc2)n1-c1ccc(Br)cc1 | inconclusive: -6.51% |  |
| COc1ccc(C(CNC(=O)c2ccco2)N2CCOCC2)cc1 (centres undefined) |  | inconclusive: 0.259 µM [falling, full curve, poor fit] |
| Cc1ccc2c(C)c(C(=O)Nc3ccc(S(N)(=O)=O)cc3)oc2c1C | inconclusive: -67.4% |  |
| O=C(CN1CCc2ccccc2C1)Nc1ccc(F)cc1F |  | inconclusive: 18.4 µM [activator, single point] |
| CCCCn1ccnc1C(=O)c1cccc(S(=O)(=O)N2CC(C)CC(C)C2)c1 (centres undefined) | inconclusive: 443% |  |
| COc1cc(CCC(=O)N2CCN(S(=O)(=O)c3ccc(C)cc3)CC2)cc(OC)c1OC |  | inconclusive: 6.51 µM [falling, single point] |
| COc1cc2c(cc1OC)CN(C(=S)Nc1ccc(C)cc1C)CC2 | inactive: -12.4% |  |
| Clc1ccccc1/C=C/c1ccnc2ccccc12 | inconclusive: -12.8% |  |
| C=CCN1C(=O)S/C(=C\c2ccc3c(c2)n(C)c(=O)n3C)C1=O | inconclusive: 19.4% |  |
| Clc1nccnc1N/N=C/c1ccc(Br)cc1 | inconclusive: 32.4% |  |
| C#CCOCCOCCOCCNc1nc(N2CCN(C(=O)CCCCCCCCCCNC(=O)[C@@H]([C@H](C)O)n3cc(C)nn3)CC2)nc(N2CCN(C(=O)CCCCCCCCCCNC(=O)[C@@H]([C@H](C)O)n3cc(C)nn3)CC2)n1 |  | inconclusive: 5.8 µM [falling, full curve, poor fit] |
| O=C(CN1C2=NCCN2c2ccccc21)N1CCOCC1 | inconclusive: -24.5% |  |

2 records drawn at random from those above:

| Structure (SMILES) | lipid storage change, negative = inhibition | Potency |
| --- | --- | --- |
| CCCOc1ccc(NC(=O)CC2C(=O)OCC3CCCCN32)cc1 (centres undefined) |  | inconclusive: 0.0046 µM [activator, full curve, poor fit] |
| COc1cc(CCC(=O)N2CCN(S(=O)(=O)c3ccc(C)cc3)CC2)cc(OC)c1OC |  | inconclusive: 6.51 µM [falling, single point] |
